Taken from: PubChem BioAssay AID1159584 (Peter MacCallum Cancer Centre, 2016)
Screen: 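Genes that CDH1-null MCF10A cells selectively depend on to survive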 (primary screen). Cells: human MCF10A breast epithelial cells, parental and CDH1-null. Knock-down reagent: siRNA against human genes. Detection: 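Cell viability by CellTiter-Glo ATP luminescence, each line scaled to the mean of mock wells across plates, then CDH1-null over parental ratio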. Reading the numbers: CDH1-null / parental viability ratio: higher = CDH1-null cells survive relatively better than parental; CDH1-null viability vs mock: higher = more viable CDH1-null cells. Units: CDH1-null viability vs mock in fraction of mock.
This is a random part of about 18,000 reagents tested. Further read-outs or replicates are left out here. No sequences are given here. Not stated in the record: the amount of reagent, the time to read-out.

Silencing of PLPBP (pyridoxal phosphate binding protein) resulted in: CDH1-null / parental viability ratio 1.09; CDH1-null viability vs mock 0.48.
For MYB (MYB proto-oncogene, transcription factor), the entry reads CDH1-null / parental viability ratio 1.14; CDH1-null viability vs mock 1.12.
Against ZNF296 (zinc finger protein 296) the deposit lists CDH1-null / parental viability ratio 1.05; CDH1-null viability vs mock 1.01.
PRKD2 (protein kinase D2) gave CDH1-null / parental viability ratio 0.79; CDH1-null viability vs mock 0.6.
Silencing of ZNF540 (zinc finger protein 540) resulted in: CDH1-null / parental viability ratio 0.89; CDH1-null viability vs mock 0.51.
Against MLLT3 (MLLT3 super elongation complex subunit), the entry reads CDH1-null / parental viability ratio 1.09; CDH1-null viability vs mock 0.94.
PGAP2 (post-GPI attachment to proteins 2) scored CDH1-null / parental viability ratio 1.49; CDH1-null viability vs mock 0.82.
SLX9 (SLX9 ribosome biogenesis factor) scored CDH1-null / parental viability ratio 1.03; CDH1-null viability vs mock 0.7.
Depletion of CUBN (cubilin) came out at: CDH1-null / parental viability ratio 0.98; CDH1-null viability vs mock 0.94.

An excerpt from above, showing only “CDH1-null viability vs mock”:
ZNF540 (zinc finger protein 540) = 0.51
MLLT3 (MLLT3 super elongation complex subunit) = 0.94

The results go on.
PDPK1 (3-phosphoinositide dependent protein kinase 1) gave CDH1-null / parental viability ratio 0.88; CDH1-null viability vs mock 0.85.
CEMIP2 (cell migration inducing hyaluronidase 2) scored CDH1-null / parental viability ratio 1.24; CDH1-null viability vs mock 0.84.
Against FERD3L (Fer3 like bHLH transcription factor), the values are CDH1-null / parental viability ratio 1.21; CDH1-null viability vs mock 0.99.
Silencing of EIF4A2 (eukaryotic translation initiation factor 4A2) came out at: CDH1-null / parental viability ratio 1.18; CDH1-null viability vs mock 1.14.
Against H2AZ2 (H2A.Z variant histone 2), the entry reads CDH1-null / parental viability ratio 0.86; CDH1-null viability vs mock 0.75.
